PubChem BioAssay AID504786, Drosophila RNAi Screening Center | 2011

Screen: 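Positive regulators of HIF-driven reporter output in Drosophila cells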 (primary screen)
Cells: Drosophila S2 cells with a stable HIF luciferase reporter
Reagent: long dsRNA against Drosophila genes, about 0.2 µg dsRNA per well of a 384-well plate
Time to read-out: three days of knock-down, then 20 h of DFO before reading
Conditions: desferrioxamine (DFO) at 100 µM, an iron chelator that mimics hypoxia, for 20 h
Read-out: 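HIF reporter luminescence in cells given 100 µM DFO for 20 h, using the mouse ldh-a hypoxia-response element, scored as per-plate z-scores; higher means greater loss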
Scale: z-score: higher = stronger loss of HIF reporter signal
The deposit covers about 21,000 reagents; below is an unselected part of those with a known target gene and a result. 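Primary screen; positive scores mean lost reporter signal, so the sign may be inverted from the usual convention.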 Names joined by + are all predicted targets of the reagent. Not all columns of the deposit are shown.

The opening 5 entries as a preview:
gene knocked down	PubChem SID	z-score, replicate 1	z-score, replicate 2	z-score, replicate 3
Dpp10	SID104180734	0.1	0	
Dpp10	SID104181931	-0.2	-0.3	
Ste:CG33238 + Ste:CG33241 + Ste:CG33236 + 11 more	SID104198796	-0.4	0.2	
Ste:CG33238 + Ste:CG33241 + Ste:CG33236 + 11 more	SID104201052	-0.4	-0.4	
CG14853	SID104194769	-0.3	0.3	-0.7

The listing, from the start:
gene knocked down	PubChem SID	z-score, replicate 1	z-score, replicate 2	z-score, replicate 3
Dpp10	SID104180734	0.1	0	
Dpp10	SID104181931	-0.2	-0.3	
Ste:CG33238 + Ste:CG33241 + Ste:CG33236 + 11 more	SID104198796	-0.4	0.2	
Ste:CG33238 + Ste:CG33241 + Ste:CG33236 + 11 more	SID104201052	-0.4	-0.4	
CG14853	SID104194769	-0.3	0.3	-0.7
bchs	SID104182918	0	0.3	
N	SID104198477	-0.3	-0.4	
CG14126 (retired record)	SID104189922	-0.1	-0.2	
CG10510	SID104191406	-0.2	-0.2	
naz	SID104194582	-0.6	-0.3	
naz	SID104195991	-0.5	-0.2	
dre4	SID104188506	0.7	3.7	
CG15098	SID104186319	1.6	1.8	
Spn77Bb + Spn77Bc	SID104190481	-0.3	-0.3	
Spn77Bb + Spn77Bc	SID104191585	-0.3	-0.3	
CG4576	SID104195396	-0.3	-0.4	
CG3502	SID104184173	-0.3	0	
EMC10	SID104191642	-0.3	-0.2	
ase	SID104198531	-0.2	-0.3	
CG9044	SID104182922	-0.3	-0.4	
Gbp1	SID104186384	-0.1	-0.2	
eIF3f2	SID104184695	-0.3	-0.4	
CG12828	SID104185969	-0.3	-0.4	
stum	SID104184060	-0.3	-0.3	
stum	SID104184062	-0.2	-0.5	
Cubn	SID104198048	-0.2	-0.1	
TwdlC	SID104194541	-0.2	0.1	
CG18004	SID104186497	-0.4	-0.1	
mRpL15	SID104191563	1.1	0.8	
Kah	SID104187679	-0.4	0.3	
Kah	SID104188307	-0.4	0.5	
CG4239	SID104199677	-0.4	-0.4	
E(spl)malpha-BFM	SID104196786	0.2	0	
CG8321	SID104186940	-0.4	-0.9	
ng1	SID104198594	-0.4	-0.2	
CG14708	SID104194722	-0.3	-0.5	
pont	SID104196821	3.9	4.5	
CG5810	SID104195672	-0.2	-0.4	
Prat	SID104196589	-0.1	0.6	
CG31051	SID104194826	0.7	0.2	
CG10337	SID104181830	-0.1	-0.1	
Bbd	SID104186501	-0.1	-0.2	
Fur2	SID104199609	-0.2	0.7	
Uev1A	SID104189555	-0.5	-1	
CCHa1	SID104194613	2	1.5	
CG10307	SID104183849	-0.2	-0.1	
fog	SID104200438	-0.3	0	
Magi	SID104184039	-0.2	-0.3	
Magi	SID104184243	0.2	0.2	
bnb	SID104200106	-0.4	-0.5	
Sodh1	SID104192397	-0.4	-0.5	
conv	SID104187005	-0.3	-0.3	
lky	SID104200474	-0.2	-0.4	
CG8708	SID104187032	-0.3	-0.3	
CG14500	SID104186263	-0.3	-0.5	
CG13578	SID104184006	-0.3	0	
CG32695	SID104197767	0	-0.2	
CG18135	SID104190087	-0.2	-0.8	
CG13114	SID104182004	-0.2	-0.3	
Lcp1Psi	SID104184897	0.6	0.3	
CG34461	SID104190559	0.5	0	
scrib	SID104193566	0.8	0.2	
scrib	SID104195601	-0.3	-0.2	
scrib	SID104196843	0.3	1.5	
Hyccin	SID104186775	-0.3	-0.4	
spz4	SID104182202	0.5	0.1	
Tssk	SID104194576	-1	-0.7	
CG14692	SID104194707	-0.3	0	
CG13216	SID104186130	-0.2	-0.1	
CG6984	SID104186805	-0.1	0.2	
CG5290	SID104190293	-0.4	-0.4	
Cht10	SID104183558	-0.2	-0.2	
Cht10	SID104183559	-0.2	-0.1	
Cht10	SID104183560	-0.3	-0.2	
pr	SID104183388	-0.4	-0.2	
Brf	SID104193020	-0.4	0.1	
Brf	SID104193958	0.2	2.3	
Brf	SID104193959	-0.2	0.1	
vls	SID104181893	0.1	0.8	
nop5	SID104183374	0.6	2.6	
CG12213	SID104194270	-0.1	-0.2	-0.7
ema	SID104194328	-0.2	0.4	
Spn100A	SID104194388	-0.3	-0.2	
